Structures are written as SMILES.

Chains of the proteins cited; added tags and fusions are not shown. Residues count along the entry.
UniProt P04757, 26-499: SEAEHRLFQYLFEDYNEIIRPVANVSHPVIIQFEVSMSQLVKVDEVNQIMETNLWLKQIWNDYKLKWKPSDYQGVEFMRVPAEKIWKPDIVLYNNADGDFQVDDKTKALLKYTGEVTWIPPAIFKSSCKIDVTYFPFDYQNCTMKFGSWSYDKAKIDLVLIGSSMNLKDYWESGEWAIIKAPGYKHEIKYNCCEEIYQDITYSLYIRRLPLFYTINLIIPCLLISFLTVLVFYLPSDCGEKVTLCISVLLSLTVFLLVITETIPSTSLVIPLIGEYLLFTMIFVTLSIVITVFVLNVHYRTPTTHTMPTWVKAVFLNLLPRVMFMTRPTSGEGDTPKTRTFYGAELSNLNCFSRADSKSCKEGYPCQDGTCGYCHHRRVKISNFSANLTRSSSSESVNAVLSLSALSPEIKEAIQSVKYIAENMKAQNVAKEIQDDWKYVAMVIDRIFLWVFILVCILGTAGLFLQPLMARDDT
UniProt P12392, 21-495: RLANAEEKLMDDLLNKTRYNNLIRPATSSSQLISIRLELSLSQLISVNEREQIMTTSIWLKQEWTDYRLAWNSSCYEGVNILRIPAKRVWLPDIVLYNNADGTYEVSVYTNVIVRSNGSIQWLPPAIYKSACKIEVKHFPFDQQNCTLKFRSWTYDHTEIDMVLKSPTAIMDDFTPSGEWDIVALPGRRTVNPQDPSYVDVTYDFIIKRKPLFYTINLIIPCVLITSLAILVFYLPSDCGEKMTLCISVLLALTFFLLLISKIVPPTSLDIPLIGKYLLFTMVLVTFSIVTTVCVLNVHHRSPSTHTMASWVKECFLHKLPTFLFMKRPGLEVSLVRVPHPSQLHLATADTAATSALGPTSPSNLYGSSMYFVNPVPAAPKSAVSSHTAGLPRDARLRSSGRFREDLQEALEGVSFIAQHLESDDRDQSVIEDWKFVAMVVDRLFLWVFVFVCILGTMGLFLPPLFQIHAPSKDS

The test concerns the target α3β4 nAChR (Rattus norvegicus, UniProt P04757+P12392). The test is described as follows: biochemical. The arrangement: host or cells: HEK293 (KXα3β4R2). The test is classed as binding. Particulars: log K chromatographic equilibrium constant.

`CN1CCN(C2=Nc3cc(Cl)ccc3Nc3ccccc32)CC1` [clozapine] had a Kd of 22.4 nM.

The values are drawn from patent US7749984B2, “Computer-based model for identification and characterization of non-competitive inhibitors of nicotinic acetylcholine receptors and related ligand-gated ion channel receptors” (priority 2003, dated 2010).
